1 molecule from patent US8278309B2, “Synthetic mimetics of host defense and uses thereof” (priority 2008, dated 2012) can be followed below.

For this assay, the system named is Pseudomonas aeruginosa. As to the kind of experiment: MIC broth microdilution, Gram-negative clinical isolates. The class given is cell-based. The method, then:
Compound A was evaluated in vitro in accordance with defined CLSI documents specific to the organisms (aerobic, anaerobic or yeast) tested in this study. Ampicillin, ceftazidime, cefuroxime, ciprofloxacin, linezolid, and vancomycin were tested alongside as comparator agents for aerobic bacteria; clindamycin and metronidazole were tested as comparators for anaerobes; fluconazole was tested as a comparator for yeast isolates. Stock solutions of Compound A were prepared in dimethyl sulfoxide (DMSO). Ampicillin, ceftazidime, cefuroxime, ciprofloxacin, linezolid, vancomycin, metronidazole, clindamycin, and fluconazole were prepared each according to its manufacturer's guideline.
Minimum inhibitory concentrations (MICs) in μg/ml were determined according to CLSI guideline M7-A7 by broth microdilution. All aerobes were tested using Mueller-Hinton broth medium with the exception of Streptococcus spp., which were tested using cation-adjusted Mueller-Hinton broth supplemented with 2-5% lysed horse blood.
A general note: Broth dilution looks for growth in wells or tubes with falling amounts of substance.

A value given as a limit tells only on which side of the number the result lay.

In general, MIC refers to the lowest concentration that inhibits growth of the organism.

`CN[C@H](CC(C)C)C(=O)N[C@H]1C(=O)N[C@@H](CC(N)=O)C(=O)N[C@H]2C(=O)N[C@H]3C(=O)N[C@H](C(=O)N[C@H](C(=O)O)c4cc(O)cc(O)c4-c4cc3ccc4O)[C@H](O)c3ccc(c(Cl)c3)Oc3cc2cc(c3O[C@@H]2O[C@H](CO)[C@@H](O)[C@H](O)[C@H]2O[C@H]2C[C@](C)(N)[C@H](O)[C@H](C)O2)Oc2ccc(cc2Cl)[C@H]1O` [Vancomycin] came in with an MIC of more than 128 µg/mL.
